Data published in PubChem BioAssay AID2417 (National Center for Advancing Translational Sciences (NCATS), 2010).
The campaign covered roughly 140,000 compounds. About 4,300 (3.1%) were called active. The inconclusive results got no clear call from the source; some entries with a clear call stand among them for comparison.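 The calls were made as follows: active = readout at or below -70, meaning at least 70% loss of cells showing the perinucleolar compartment, a nuclear body marking cancer cells; inconclusive = readout between -30 and a set limit; inactive = the rest.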

Assay: High Content Assay for Compounds that inhibit the Assembly of the Perinucleolar Compartment;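 also: plate controls were DMSO wells for no effect and camptothecin positive control wells for full effect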
Details: PC3M PTB-GFP, PNC prevalence imaging, 16 h; at 10 µM; hits give low values
Method in brief: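 PC3M cells stably expressing PTB-GFP, 750–1000 cells/well, treated 16 h at 37 °C with compound (23 nl of library stock), in duplicate. After paraformaldehyde fixation and Hoechst stain, imaged at 20x; PNC prevalence scored by image analysis.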

SMILES	activity change (PNC), negative = inhibition
CCOc1cc2[nH]c(=S)n(CCCOC)c(=O)c2cc1OCC	inconclusive: -59%
COc1ccc(NC(=O)c2ccc(-n3nc(C)cc3C)cc2)cc1OC	inconclusive: -37%
O=C(Nc1ccccc1)C(=O)c1cn(CC(=O)N2CCCCC2)c2ccccc12	inconclusive: -53.4%
CC1=C(C#N)C(c2ccc(O)cc2)C2=C(CC(C)(C)CC2=O)N1 (configuration not stated)	inconclusive: -72.1%
O=C(c1ccccc1NS(=O)(=O)c1ccc(F)cc1)N1CCCC1	inactive: -8.32%
Cc1cc(=O)[nH]c2c1c(C)nn2C1CCOC(C)(C)C1 (configuration not stated)	inactive: 43.1%
CCOP(=O)(c1ccccc1)c1nc(-c2ccc(F)cc2)oc1N1CCCCC1 (configuration not stated)	active: -87.4%
CC1=NNC(=O)/C1=C\c1cn(-c2ccccc2)nc1-c1ccc(Cl)cc1	inactive: 54%
Cn1c(SCc2ccccc2)nnc1C1CCCNC1 (configuration not stated)	active: -107%
N=c1ccn(Cc2ccccc2Cl)cc1	inconclusive: -30.4%
COc1cccc(C2=NO[C@@H]3C(=O)N(c4ccc5c(c4)OCCO5)C(=O)[C@H]23)c1OC	inactive: -15.8%
Cc1ccc(CN2CN(S(=O)(=O)c3cccs3)c3nc4ccccc4nc32)cc1	inactive: 24.5%
O=C(Nc1nc(-c2ccc3c(c2)OCO3)cs1)c1ccncc1	active: -83.5%
O=C(Oc1ccc2c(c1)OCO2)c1ccc(Br)c(S(=O)(=O)N2CCOCC2)c1	inconclusive: -36.3%
Cn1c(N)c(C(=O)COC(=O)CCc2c[nH]c3ccccc23)c(=O)n(C)c1=O	inactive: 26.9%
Cc1cc(S(=O)(=O)Nc2ccc3ccccc3c2)c(C)s1	inconclusive: -41.8%
COc1cccc(N(CC(=O)NCCSc2ccccc2)S(C)(=O)=O)c1	inconclusive: -46.4%
O=C(O)CCSc1nc(C(F)(F)F)cc(=O)n1-c1ccccc1	inconclusive: -53.3%
COC(=O)c1sc2nc(-c3ccccc3)nc(N3CCN(C)CC3)c2c1C	inconclusive: -48.9%

SMILES	activity change (PNC), negative = inhibition
Cc1ccccc1CNC(=O)c1ccccc1C	inactive: -22%
O=C1CC(=O)C(n2cncn2)C(c2c(F)cccc2Cl)C1 (configuration not stated)	inconclusive: -41.2%
CCOC(=O)NC1(C(F)(F)F)N=C(c2ccccc2)NC1=O (configuration not stated)	inconclusive: -52.5%
COc1ccc(C2C(C(=O)c3sc(C)nc3C)=C(O)C(=O)N2CCCn2ccnc2)cc1OC (configuration not stated)	inconclusive: -30.4%
COc1ccc(Cc2nc(-c3ccc(Br)o3)no2)cc1OC	inconclusive: -40.4%
COCCN(CCOC)c1ncc(Cl)c(C(=O)c2c(C)cc3ccccn23)n1	inconclusive: -69.1%
C=CCn1cc(C(=O)N2CCc3ccccc3C2)c(=O)c2cc(S(=O)(=O)N(CC)CC)ccc21	inconclusive: -57.3%
CC1=CC(C)(C)N2C(=O)C3(C(C#N)=C(N)OC4=C3C(=O)CC(C)(C)C4)c3cc(C)cc1c32 (configuration not stated)	inconclusive: -54%
N#Cc1ccc(CSc2nnc(-c3cccs3)n2-c2ccccc2)cc1	inconclusive: -58.4%
CC(N=Cc1cccc(O)c1O)c1ccccc1 (configuration not stated)	inactive: -0.382%
COc1ccc(/C(C)=N/NC(=O)CCC(=O)Nc2ccc(Cl)cc2Cl)c(OC)c1	inactive: -10.3%
O=C(/C=C/c1ccc2c(c1)OCO2)Nc1nc(-c2ccc(F)cc2F)cs1	inconclusive: -62%
CCOc1ccc(N(CC(=O)NCC(C)C)S(C)(=O)=O)cc1	inconclusive: -35.4%
CCN(CC)c1ccc(/C=C(\C#N)c2ccccn2)cc1	inconclusive: -39.7%
Cc1cc(N2CCOCC2)n2nc(C)c(-c3ccccc3)c2n1	inconclusive: -54.1%
COc1ccc(C(=O)/C=C(\C)Nc2ccc(NC(C)=O)cc2)cc1	inactive: -28.5%
CCOc1cc(S(=O)(=O)NCc2ccccn2)c(C)cc1C	inconclusive: -50.3%
Cc1ccccc1NC(=O)c1cc(C(=O)c2cc(Cl)ccc2O)cn(-c2ccccc2C)c1=O	inactive: 21.8%
CC(=O)c1cc2c(cc1NC(=O)CSc1nnc(C)s1)OCO2	inconclusive: -56.6%

SMILES	activity change (PNC), negative = inhibition
Cc1c(S(=O)(=O)N2CCOCC2)c(=O)n(C)c(=O)n1C	inactive: -18.4%
COc1ccc(-c2[nH]c(-c3ccc(Cl)cc3)nc2SCC(=O)Nc2nccs2)cc1	inactive: 1.73%
Cc1ccc(-c2noc(C3CCCN(C(=O)c4ccccc4)C3)n2)o1 (configuration not stated)	inactive: 3.57%
Cc1ccc(S(=O)(=O)N2CCCN(S(=O)(=O)C3CCS(=O)(=O)C3)CC2)cc1 (configuration not stated)	inactive: 22.6%
CCN(C(=O)COC(=O)C(Cc1ccccc1)N1C(=O)c2ccccc2C1=O)C1CCS(=O)(=O)C1 (configuration not stated)	inconclusive: -46%
OC(COC(c1ccc(F)cc1)c1ccc(F)cc1)CN1CCc2ccccc2C1 (configuration not stated)	inconclusive: -32.6%
Cc1nn(-c2ccccn2)c2c1C(c1c(F)cccc1Cl)C1=C(N2)c2ccccc2C1=O (configuration not stated)	inconclusive: -40.1%
O=C(c1ccc2c(c1)OCO2)N1CCCC1	inactive: -14.8%
COc1ccc(-c2nc3ccccc3n2Cc2ccccc2)cc1	inconclusive: -35.9%
CCOC(=O)c1c(C)n(C)c2ccc(O)c(S(=O)(=O)c3ccccc3)c12	inconclusive: -57.8%
Cc1ccccc1-c1nc2ccccc2c(=O)n1C1CCS(=O)(=O)C1 (configuration not stated)	inconclusive: -74.6%
N#C/C(=C/c1ccc(Sc2nc3ccccc3[nH]2)o1)c1ccccc1F	inconclusive: -38.7%
CCOC(=O)c1ccccc1NC(=O)c1cccc2c1C(=O)N(C1CCN(C(=O)OCC)CC1)C2	inconclusive: -47.5%
c1nc(N2CCCCC2)c2[nH]cnc2n1	active: -119%
CCNc1nc(SC(C)C(=O)OC)nc(N2CCOCC2)n1 (configuration not stated)	inactive: 4.12%
CCn1nnnc1SCC(=O)Nc1ccc2c(c1)OCO2	inactive: -25.9%
C1CCC(C23CC4CC(CC(C4)C2)C3)NC1 (configuration not stated)	inactive: 27.1%
Cc1ccc(NC(=O)N2CCc3ccccc32)cc1	inactive: -13.9%
CCOC(=O)c1c(-c2ccc(C)cc2)csc1NC(=O)/C(C#N)=C/c1ccc(O)c(OC)c1	inconclusive: -42.9%

Grouped by structure: the entries above containing a CF3 group (two)
SMILES	activity change (PNC), negative = inhibition
O=C(O)CCSc1nc(C(F)(F)F)cc(=O)n1-c1ccccc1	inconclusive: -53.3%
CCOC(=O)NC1(C(F)(F)F)N=C(c2ccccc2)NC1=O (configuration not stated)	inconclusive: -52.5%
